Assay results: the supplement of paper PMC4604168 (melanoma cell lines)
This is one part of the list. Repeats are few or missing, and single values can be far off.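 The apoptosis fraction was the count of cleaved-PARP antibody-stained nuclei relative to all DNA-stained nuclei, imaged in 1,536-well plates. Screening doses were set so most cells survived, and baseline and induced cleaved-PARP levels vary greatly across cell lines.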

Tested on: WM3619
Assay: cleaved PARP positive nuclei fraction relative to DMSO control; melanoma cells; higher = more apoptosis
Conditions: library dose: low library concentration; 72 h

SMILES	cleaved PARP positive nuclei fraction
C[As](C)SC[C@H](NC(=O)CC[C@H](N)C(=O)O)C(=O)NCC(=O)O [Darinaparsin] + Oc1cc(-c2nc(-c3ccccc3)[nH]c2-c2ccncc2)ccc1Cl [L779450] (first compound 0.4 µM, partner dose 0.2 µM)	101%
CC(=O)O[C@@]12CO[C@@H]1C[C@H](O)[C@@]1(C)C(=O)[C@H](O)C3=C(C)[C@@H](OC(=O)[C@H](O)[C@@H](NC(=O)OC(C)(C)C)c4ccccc4)C[C@@](O)([C@@H](OC(=O)c4ccccc4)[C@H]21)C3(C)C [Docetaxel] + O=C(Oc1ccc([N+](=O)[O-])cc1)N1CCC(C(O)(c2ccc3c(c2)OCO3)c2ccc3c(c2)OCO3)CC1 [JZL184] (first compound 0.0001 µM, partner dose 1 µM)	177%
C[C@]12O[C@H](C[C@]1(O)CO)n1c3ccccc3c3c4c(c5c6ccccc6n2c5c31)CNC4=O [Lestaurtinib] + CS(=O)(=O)c1ccc(C(=O)Nc2ccc(Cl)c(-c3ccccn3)c2)c(Cl)c1 [vismodegib] (first compound 0.004 µM, partner dose 1 µM)	84.5%
C[As](C)SC[C@H](NC(=O)CC[C@H](N)C(=O)O)C(=O)NCC(=O)O [Darinaparsin] + COc1ccc2c(c1)CCC1C2CCC2(C)C(NCCCCCCN3C(=O)C=CC3=O)CCC12 [U73122] (first compound 0.4 µM, partner dose 0.4 µM)	90.8%
C=C(c1ccc(C(=O)O)cc1)c1cc2c(cc1C)C(C)(C)CCC2(C)C [Bexarotene] + C[As](C)SC[C@H](NC(=O)CC[C@H](N)C(=O)O)C(=O)NCC(=O)O [Darinaparsin] (first compound 2 µM, partner dose 0.4 µM)	118%
CC(=O)O[C@@]12CO[C@@H]1C[C@H](O)[C@@]1(C)C(=O)[C@H](O)C3=C(C)[C@@H](OC(=O)[C@H](O)[C@@H](NC(=O)OC(C)(C)C)c4ccccc4)C[C@@](O)([C@@H](OC(=O)c4ccccc4)[C@H]21)C3(C)C [Docetaxel] + N.N.[Cl][Pt][Cl] [cisplatin] (first compound 0.0001 µM, partner dose 1.6 µM)	110%
Cc1cc(Nc2cc(N3CCN(C)CC3)nc(/C=C/c3ccccc3)n2)n[nH]1 + O=C(Oc1ccc([N+](=O)[O-])cc1)N1CCC(C(O)(c2ccc3c(c2)OCO3)c2ccc3c(c2)OCO3)CC1 [JZL184] (first compound 0.04 µM, partner dose 1 µM)	1700%
Cn1cnc2c(F)c(Nc3ccc(Br)cc3Cl)c(C(=O)NOCCO)cc21 [selumetinib] + N.N.[Cl][Pt][Cl] [cisplatin] (first compound 0.015 µM, partner dose 1.6 µM)	104%
C[As](C)SC[C@H](NC(=O)CC[C@H](N)C(=O)O)C(=O)NCC(=O)O [Darinaparsin] + COc1cc(N2CCC(N3CCN(C)CC3)CC2)ccc1Nc1ncc(Cl)c(Nc2ccccc2S(=O)(=O)C(C)C)n1 [NVP-TAE684] (first compound 0.4 µM, partner dose 0.08 µM)	148%
CC1(C)CCC(c2ccc(Cl)cc2)=C(CN2CCN(c3ccc(C(=O)NS(=O)(=O)c4ccc(N[C@H](CCN5CCOCC5)CSc5ccccc5)c(S(=O)(=O)C(F)(F)F)c4)cc3)CC2)C1 + Cn1cc(C2=C(c3cn(C4CCN(Cc5ccccn5)CC4)c4ccccc34)C(=O)NC2=O)c2ccccc21 [Enzastaurin] (first compound 0.4 µM, partner dose 0.8 µM)	87.1%
NC(=O)c1ccc(N(C(N)=O)c2c(F)cccc2F)nc1-c1ccc(F)cc1F + C[As](C)SC[C@H](NC(=O)CC[C@H](N)C(=O)O)C(=O)NCC(=O)O [Darinaparsin] (first compound 0.4 µM, partner dose 0.4 µM)	88.6%
C[C@]12O[C@H](C[C@]1(O)CO)n1c3ccccc3c3c4c(c5c6ccccc6n2c5c31)CNC4=O [Lestaurtinib] + Oc1nc(-c2ccc(C(F)(F)F)cc2)nc2c1CSCC2 [XAV939] (first compound 0.004 µM, partner dose 2 µM)	102%
CCCCCCCCCCCCCCCCCCOP(=O)([O-])OC1CC[N+](C)(C)CC1 [Perifosine] + Cn1cc(C2=C(c3cn(C4CCN(Cc5ccccn5)CC4)c4ccccc34)C(=O)NC2=O)c2ccccc21 [Enzastaurin] (first compound 0.4 µM, partner dose 0.8 µM)	96.2%
